Measurements published in article PMC11712038.
No constants are given. Whether binding was seen depends on the method and setting.

Protein sequences, listed by entry. Tags and fused reporters are not part of them. Residues count along the entry.
UniProt Q9Y6W8, residues 21-199: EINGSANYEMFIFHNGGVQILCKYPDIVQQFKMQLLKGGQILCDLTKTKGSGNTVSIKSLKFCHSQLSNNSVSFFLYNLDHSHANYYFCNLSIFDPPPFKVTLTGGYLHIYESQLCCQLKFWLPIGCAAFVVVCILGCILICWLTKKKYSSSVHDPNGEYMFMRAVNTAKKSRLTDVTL
UniProt P01009, residues 25-418: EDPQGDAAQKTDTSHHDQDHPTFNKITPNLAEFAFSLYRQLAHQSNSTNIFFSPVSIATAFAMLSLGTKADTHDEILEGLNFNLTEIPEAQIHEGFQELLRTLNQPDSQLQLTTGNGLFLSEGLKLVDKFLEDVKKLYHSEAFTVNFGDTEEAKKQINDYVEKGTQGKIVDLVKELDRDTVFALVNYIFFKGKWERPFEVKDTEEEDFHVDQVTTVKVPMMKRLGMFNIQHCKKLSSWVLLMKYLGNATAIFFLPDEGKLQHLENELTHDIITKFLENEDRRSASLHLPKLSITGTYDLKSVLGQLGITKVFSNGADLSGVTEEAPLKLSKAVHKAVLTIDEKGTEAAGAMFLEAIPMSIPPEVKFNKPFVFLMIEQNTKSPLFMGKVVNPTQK

Target: ICOS on primary human T cells (human (endogenous in primary CD4+ T cells and Tregs)) (UniProt Q9Y6W8)
Assay: ELISA; CD4+ T cells incubated with biotinylated FH or biotinylated α1-AT for 2 hours at 37°C and lysed; lysates on plates coated with anti-ICOS; detection with streptavidin-HRP; only the binder purified

alpha-1 antitrypsin (α1-AT), purified from human plasma (from UniProt P01009 25-418)
binding: no binding
